# Paper PMC8384837
# Numbering of substitutions follows the chain as printed. This is one part of the list. For some of these results: At the low end of the ranking the order means little. For some of these results: Construct or isoform of the protein are uncertain.
# What was measured:
# Settings in all cases: yeast three-hybrid, YBZ-1, SC-Leu-His + 0.5 mM 3-AT, 4 days
# [1] = molecular target: T1, PUM1 PUF domain R1-QFR R2-VFQ R6-SWD S863Q + R864F + Q867R + N899V + Y900F + N1043S + Y1044W + Q1047D (UniProt Q14671)
# T1 sequence: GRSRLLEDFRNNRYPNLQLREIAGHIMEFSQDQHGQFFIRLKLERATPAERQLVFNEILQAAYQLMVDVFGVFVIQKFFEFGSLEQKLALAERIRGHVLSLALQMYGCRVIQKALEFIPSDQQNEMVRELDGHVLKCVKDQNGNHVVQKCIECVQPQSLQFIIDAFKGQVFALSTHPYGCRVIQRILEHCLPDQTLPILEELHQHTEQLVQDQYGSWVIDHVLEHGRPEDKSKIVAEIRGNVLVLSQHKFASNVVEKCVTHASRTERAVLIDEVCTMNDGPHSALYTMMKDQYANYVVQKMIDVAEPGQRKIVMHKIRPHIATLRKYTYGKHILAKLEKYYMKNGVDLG
# [2] = molecular target: T2, PUM1 PUF domain R2-KLV N899K + Y900L + Q903V (UniProt Q14671)
# T2 sequence: T1 sequence with Q36S, F37R, R40Q, V72K, F73L, Q76V, S216N, W217Y, D220Q
# [3] = molecular target: T3, PUM1 PUF domain R2-KVA N899K + Y900V + Q903A (UniProt Q14671)
# T3 sequence: T1 sequence with Q36S, F37R, R40Q, V72K, F73V, Q76A, S216N, W217Y, D220Q
# [4] = molecular target: T4, PUM1 PUF domain R2-MVW N899M + Y900V + Q903W (UniProt Q14671)
# T4 sequence: T1 sequence with Q36S, F37R, R40Q, V72M, F73V, Q76W, S216N, W217Y, D220Q
# [5] = molecular target: T5, PUM1 PUF domain R2-PVM N899P + Y900V + Q903M (UniProt Q14671)
# T5 sequence: T1 sequence with Q36S, F37R, R40Q, V72P, F73V, Q76M, S216N, W217Y, D220Q
# [6] = molecular target: T6, PUM1 PUF domain R2-PWL N899P + Y900W + Q903L (UniProt Q14671)
# T6 sequence: T1 sequence with Q36S, F37R, R40Q, V72P, F73W, Q76L, S216N, W217Y, D220Q
# [7] = molecular target: T7, PUM1 PUF domain R2-QWW N899Q + Y900W + Q903W (UniProt Q14671)
# T7 sequence: T1 sequence with Q36S, F37R, R40Q, V72Q, F73W, Q76W, S216N, W217Y, D220Q
# [8] = molecular target: T8, PUM1 PUF domain R2-RKC N899R + Y900K + Q903C (UniProt Q14671)
# T8 sequence: T1 sequence with Q36S, F37R, R40Q, V72R, F73K, Q76C, S216N, W217Y, D220Q
# [9] = molecular target: T9, PUM1 PUF domain R2-RKS N899R + Y900K + Q903S (UniProt Q14671)
# T9 sequence: T1 sequence with Q36S, F37R, R40Q, V72R, F73K, Q76S, S216N, W217Y, D220Q
# [10] = molecular target: T10, PUM1 PUF domain R2-RTS N899R + Y900T + Q903S (UniProt Q14671)
# T10 sequence: T1 sequence with Q36S, F37R, R40Q, V72R, F73T, Q76S, S216N, W217Y, D220Q
# [11] = molecular target: T11, PUM1 PUF domain R2-RVE N899R + Y900V + Q903E (UniProt Q14671)
# T11 sequence: T1 sequence with Q36S, F37R, R40Q, V72R, F73V, Q76E, S216N, W217Y, D220Q
# [12] = molecular target: T12, PUM1 PUF domain R2-VFQ R3-THE R4-TFR N899V + Y900F + C935T + R936H + Q939E + N971T + H972F + Q975R (UniProt Q14671)
# T12 sequence: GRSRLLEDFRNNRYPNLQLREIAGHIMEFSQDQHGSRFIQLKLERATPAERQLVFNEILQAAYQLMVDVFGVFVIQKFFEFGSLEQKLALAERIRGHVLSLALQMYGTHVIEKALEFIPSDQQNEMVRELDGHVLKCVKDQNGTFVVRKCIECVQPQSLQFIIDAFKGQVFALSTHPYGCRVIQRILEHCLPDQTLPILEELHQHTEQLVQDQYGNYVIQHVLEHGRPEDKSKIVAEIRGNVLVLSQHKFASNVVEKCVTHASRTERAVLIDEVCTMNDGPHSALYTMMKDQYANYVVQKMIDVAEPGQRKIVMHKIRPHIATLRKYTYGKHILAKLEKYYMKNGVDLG
# [13] = molecular target: T13, PUM1 PUF domain R3-THE R4-TFR C935T + R936H + Q939E + N971T + H972F + Q975R (UniProt Q14671)
# T13 sequence: T12 sequence with V72N, F73Y
# [14] = molecular target: T14, PUM1 PUF domain R3-THE R4-TFR R7-NPG C935T + R936H + Q939E + N971T + H972F + Q975R + S1079N + N1080P + E1083G (Homo sapiens) (UniProt Q14671)
# T14 sequence: T12 sequence with V72N, F73Y, S252N, N253P, E256G
# [15] = molecular target: T15, PUM1 PUF domain R5-PHQ R6-SWD C1007P + R1008H + N1043S + Y1044W + Q1047D (UniProt Q14671)
# T15 sequence: T1 sequence with Q36S, F37R, R40Q, V72N, F73Y, C180P, R181H
# [16] = molecular target: T16, PUM1 PUF domain R6-RVT N1043R + Y1044V + Q1047T (UniProt Q14671)
# T16 sequence: T1 sequence with Q36S, F37R, R40Q, V72N, F73Y, S216R, W217V, D220T
# [17] = molecular target: T17, PUM1 PUF domain R6-SWD R7-NPG N1043S + Y1044W + Q1047D + S1079N + N1080P + E1083G (Homo sapiens) (UniProt Q14671)
# T17 sequence: T1 sequence with Q36S, F37R, R40Q, V72N, F73Y, S252N, N253P, E256G
# [18] = molecular target: T18, PUM1 PUF domain R1-QFR R2-VFQ R7-NPG S863Q + R864F + Q867R + N899V + Y900F + S1079N + N1080P + E1083G (UniProt Q14671)
# T18 sequence: T1 sequence with S216N, W217Y, D220Q, S252N, N253P, E256G
# [19] = molecular target: T19, PUM1 PUF domain R3-THE R4-TFR R7-NPG C935T + R936H + Q939E + N971T + H972F + Q975R + S1079N + N1080P + E1083G (UniProt Q14671)
# T19 sequence: T12 sequence with V72N, F73Y, S252N, N253P, E256G
sequence,measurement,setting,value
GGCUAGAACUAGUGGAUCCCCCGGCGCCCGGCGGCUCGAGCCCGGGUAAGUGUAAAUAGUCUGCAUGCCGCCGGGCGCCAUGCCUGCAGGUCGACUCUAGAAAACAUG,binding signal (log2 enrichment (interaction score)),[1],-5.76
same,binding signal (log2 enrichment (interaction score)),[2],-5
same,binding signal (log2 enrichment (interaction score)),[3],< -8.65
same,binding signal (log2 enrichment (interaction score)),[4],< -8.05
same,binding signal (log2 enrichment (interaction score)),[5],< -7.68
same,binding signal (log2 enrichment (interaction score)),[6],-7.51
same,binding signal (log2 enrichment (interaction score)),[7],< -6.12
same,binding signal (log2 enrichment (interaction score)),[8],-6.16
same,binding signal (log2 enrichment (interaction score)),[9],< -9
same,binding signal (log2 enrichment (interaction score)),[10],< -9.06
same,binding signal (log2 enrichment (interaction score)),[11],< -7.32
same,binding signal (log2 enrichment (interaction score)),[12],-5.27
same,binding signal (log2 enrichment (interaction score)),[13],-5.42
same,binding signal (log2 enrichment (interaction score)),[14],-1.76
same,binding signal (log2 enrichment (interaction score)),[15],-7.27
same,binding signal (log2 enrichment (interaction score)),[16],< -9.42
same,binding signal (log2 enrichment (interaction score)),[17],-0.61
GGCUAGAACUAGUGGAUCCCCCGGCGCCCGGCGGCUCGAGCCCGGGUAAGUUGACGUAGUCUGCAUGCCGCCGGGCGCCAUGCCUGCAGGUCGACUCUAGAAAACAUG,binding signal (log2 enrichment (interaction score)),[1],-5.37
same,binding signal (log2 enrichment (interaction score)),[18],-5.49
same,binding signal (log2 enrichment (interaction score)),[12],-5.3
same,binding signal (log2 enrichment (interaction score)),[13],-7.36
same,binding signal (log2 enrichment (interaction score)),[14],-1.66
same,binding signal (log2 enrichment (interaction score)),[15],-8.04
same,binding signal (log2 enrichment (interaction score)),[17],-0.93
GGCUAGAACUAGUGGAUCCCCCGGCGCCCGGCGGCUCGAGCCCGGGUAAGUUGGAUCAGUCUGCAUGCCGCCGGGCGCCAUGCCUGCAGGUCGACUCUAGAAAACAUG,binding signal (log2 enrichment (interaction score)),[1],-6.18
same,binding signal (log2 enrichment (interaction score)),[18],-4.53
same,binding signal (log2 enrichment (interaction score)),[12],-5.63
same,binding signal (log2 enrichment (interaction score)),[14],-1.58
same,binding signal (log2 enrichment (interaction score)),[15],< -7.9
GGCUAGAACUAGUGGAUCCCCCGGCGCCCGGCGGCUCGAGCCCGGGUAAGCAUCGGUAGUCUGCAUGCCGCCGGGCGCCAUGCCUGCAGGUCGACUCUAGAAAACAUG,binding signal (log2 enrichment (interaction score)),[1],-6.39
same,binding signal (log2 enrichment (interaction score)),[18],-5.11
same,binding signal (log2 enrichment (interaction score)),[13],-7.79
same,binding signal (log2 enrichment (interaction score)),[17],0.45
GGCUAGAACUAGUGGAUCCCCCGGCGCCCGGCGGCUCGAGCCCGGGUAAGUUUACGAGGUCUGCAUGCCGCCGGGCGCCAUGCCUGCAGGUCGACUCUAGAAAACAUG,binding signal (log2 enrichment (interaction score)),[1],-6.54
same,binding signal (log2 enrichment (interaction score)),[18],< -5.26
same,binding signal (log2 enrichment (interaction score)),[12],-6.78
same,binding signal (log2 enrichment (interaction score)),[13],-7.41
same,binding signal (log2 enrichment (interaction score)),[17],-0.27
GGCUAGAACUAGUGGAUCCCCCGGCGCCCGGCGGCUCGAGCCCGGGUAAGAUGAAAUCGUCUGCAUGCCGCCGGGCGCCAUGCCUGCAGGUCGACUCUAGAAAACAUG,binding signal (log2 enrichment (interaction score)),[1],-6.5
same,binding signal (log2 enrichment (interaction score)),[18],-7.08
same,binding signal (log2 enrichment (interaction score)),[19],-2.14
same,binding signal (log2 enrichment (interaction score)),[15],-8.27
same,binding signal (log2 enrichment (interaction score)),[17],-1.32
GGCUAGAACUAGUGGAUCCCCCGGCGCCCGGCGGCUCGAGCCCGGGUAAGUGUAAAUCGUCUGCAUGCCGCCGGGCGCCAUGCCUGCAGGUCGACUCUAGAAAACAUG,binding signal (log2 enrichment (interaction score)),[1],-6.28
same,binding signal (log2 enrichment (interaction score)),[18],-6.35
same,binding signal (log2 enrichment (interaction score)),[12],-6.02
same,binding signal (log2 enrichment (interaction score)),[13],-5.81
same,binding signal (log2 enrichment (interaction score)),[14],-1.17
same,binding signal (log2 enrichment (interaction score)),[15],-8.34
GGCUAGAACUAGUGGAUCCCCCGGCGCCCGGCGGCUCGAGCCCGGGUAAGUGGACGACGUCUGCAUGCCGCCGGGCGCCAUGCCUGCAGGUCGACUCUAGAAAACAUG,binding signal (log2 enrichment (interaction score)),[1],-5.73
same,binding signal (log2 enrichment (interaction score)),[18],-5.64
same,binding signal (log2 enrichment (interaction score)),[12],-3.65
same,binding signal (log2 enrichment (interaction score)),[13],-6.72
same,binding signal (log2 enrichment (interaction score)),[14],-1.68
same,binding signal (log2 enrichment (interaction score)),[15],-8.31
same,binding signal (log2 enrichment (interaction score)),[17],-0.35
GGCUAGAACUAGUGGAUCCCCCGGCGCCCGGCGGCUCGAGCCCGGGUAAGUGCUAGAAGUCUGCAUGCCGCCGGGCGCCAUGCCUGCAGGUCGACUCUAGAAAACAUG,binding signal (log2 enrichment (interaction score)),[1],-6.22
same,binding signal (log2 enrichment (interaction score)),[18],-5.15
same,binding signal (log2 enrichment (interaction score)),[13],-6.54
same,binding signal (log2 enrichment (interaction score)),[15],-8.27
GGCUAGAACUAGUGGAUCCCCCGGCGCCCGGCGGCUCGAGCCCGGGUAAGCUGGCGUAGUCUGCAUGCCGCCGGGCGCCAUGCCUGCAGGUCGACUCUAGAAAACAUG,binding signal (log2 enrichment (interaction score)),[1],-5.25
same,binding signal (log2 enrichment (interaction score)),[18],-5.62
same,binding signal (log2 enrichment (interaction score)),[13],< -8.18
same,binding signal (log2 enrichment (interaction score)),[17],-0.75
GGCUAGAACUAGUGGAUCCCCCGGCGCCCGGCGGCUCGAGCCCGGGUAAGUGUAAAUUGUCUGCAUGCCGCCGGGCGCCAUGCCUGCAGGUCGACUCUAGAAAACAUG,binding signal (log2 enrichment (interaction score)),[18],-5.92
same,binding signal (log2 enrichment (interaction score)),[13],-6.71
same,binding signal (log2 enrichment (interaction score)),[14],-1.25
same,binding signal (log2 enrichment (interaction score)),[15],< -8.03
GGCUAGAACUAGUGGAUCCCCCGGCGCCCGGCGGCUCGAGCCCGGGUAAGUAUAGCUAGUCUGCAUGCCGCCGGGCGCCAUGCCUGCAGGUCGACUCUAGAAAACAUG,binding signal (log2 enrichment (interaction score)),[1],-5.83
same,binding signal (log2 enrichment (interaction score)),[18],-4.91
same,binding signal (log2 enrichment (interaction score)),[13],-6.59
same,binding signal (log2 enrichment (interaction score)),[19],< -2.94
same,binding signal (log2 enrichment (interaction score)),[15],< -7.35

# Four records picked at random from the list so far, as already listed:
sequence,measurement,setting,value
GGCUAGAACUAGUGGAUCCCCCGGCGCCCGGCGGCUCGAGCCCGGGUAAGUGUAAAUUGUCUGCAUGCCGCCGGGCGCCAUGCCUGCAGGUCGACUCUAGAAAACAUG,binding signal (log2 enrichment (interaction score)),[14],-1.25
GGCUAGAACUAGUGGAUCCCCCGGCGCCCGGCGGCUCGAGCCCGGGUAAGUUGGAUCAGUCUGCAUGCCGCCGGGCGCCAUGCCUGCAGGUCGACUCUAGAAAACAUG,binding signal (log2 enrichment (interaction score)),[15],< -7.9
GGCUAGAACUAGUGGAUCCCCCGGCGCCCGGCGGCUCGAGCCCGGGUAAGUUUACGAGGUCUGCAUGCCGCCGGGCGCCAUGCCUGCAGGUCGACUCUAGAAAACAUG,binding signal (log2 enrichment (interaction score)),[13],-7.41
GGCUAGAACUAGUGGAUCCCCCGGCGCCCGGCGGCUCGAGCCCGGGUAAGUGUAAAUAGUCUGCAUGCCGCCGGGCGCCAUGCCUGCAGGUCGACUCUAGAAAACAUG,binding signal (log2 enrichment (interaction score)),[7],< -6.12
